Results published in the supplement of paper PMC10849652.
The other results are listed elsewhere or left out.

The chains behind the UniProt entries cited, without tags or fusion partners. Where a name states a change or a piece, a line headed by the entry shows the natural chain unless it says otherwise.
UniProt P61981: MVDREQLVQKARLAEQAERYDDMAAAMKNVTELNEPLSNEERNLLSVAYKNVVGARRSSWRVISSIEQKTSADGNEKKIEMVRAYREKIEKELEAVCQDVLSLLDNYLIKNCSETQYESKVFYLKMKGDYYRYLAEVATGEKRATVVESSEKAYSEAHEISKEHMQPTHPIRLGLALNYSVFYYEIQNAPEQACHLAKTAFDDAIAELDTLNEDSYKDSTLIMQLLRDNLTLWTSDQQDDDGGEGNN
UniProt Q9BW85: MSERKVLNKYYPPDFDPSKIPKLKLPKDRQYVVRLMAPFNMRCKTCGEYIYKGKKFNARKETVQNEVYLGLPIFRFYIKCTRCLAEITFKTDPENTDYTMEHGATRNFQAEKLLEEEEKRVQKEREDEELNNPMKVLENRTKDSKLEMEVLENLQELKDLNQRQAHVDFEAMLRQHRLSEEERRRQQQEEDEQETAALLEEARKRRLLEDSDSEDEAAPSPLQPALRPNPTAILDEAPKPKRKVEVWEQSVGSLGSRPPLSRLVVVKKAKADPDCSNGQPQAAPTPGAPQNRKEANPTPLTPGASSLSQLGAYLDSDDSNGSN
UniProt P62699: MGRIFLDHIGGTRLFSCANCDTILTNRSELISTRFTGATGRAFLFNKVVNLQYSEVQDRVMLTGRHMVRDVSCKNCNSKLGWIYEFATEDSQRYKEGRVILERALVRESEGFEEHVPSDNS
UniProt Q9UPT8: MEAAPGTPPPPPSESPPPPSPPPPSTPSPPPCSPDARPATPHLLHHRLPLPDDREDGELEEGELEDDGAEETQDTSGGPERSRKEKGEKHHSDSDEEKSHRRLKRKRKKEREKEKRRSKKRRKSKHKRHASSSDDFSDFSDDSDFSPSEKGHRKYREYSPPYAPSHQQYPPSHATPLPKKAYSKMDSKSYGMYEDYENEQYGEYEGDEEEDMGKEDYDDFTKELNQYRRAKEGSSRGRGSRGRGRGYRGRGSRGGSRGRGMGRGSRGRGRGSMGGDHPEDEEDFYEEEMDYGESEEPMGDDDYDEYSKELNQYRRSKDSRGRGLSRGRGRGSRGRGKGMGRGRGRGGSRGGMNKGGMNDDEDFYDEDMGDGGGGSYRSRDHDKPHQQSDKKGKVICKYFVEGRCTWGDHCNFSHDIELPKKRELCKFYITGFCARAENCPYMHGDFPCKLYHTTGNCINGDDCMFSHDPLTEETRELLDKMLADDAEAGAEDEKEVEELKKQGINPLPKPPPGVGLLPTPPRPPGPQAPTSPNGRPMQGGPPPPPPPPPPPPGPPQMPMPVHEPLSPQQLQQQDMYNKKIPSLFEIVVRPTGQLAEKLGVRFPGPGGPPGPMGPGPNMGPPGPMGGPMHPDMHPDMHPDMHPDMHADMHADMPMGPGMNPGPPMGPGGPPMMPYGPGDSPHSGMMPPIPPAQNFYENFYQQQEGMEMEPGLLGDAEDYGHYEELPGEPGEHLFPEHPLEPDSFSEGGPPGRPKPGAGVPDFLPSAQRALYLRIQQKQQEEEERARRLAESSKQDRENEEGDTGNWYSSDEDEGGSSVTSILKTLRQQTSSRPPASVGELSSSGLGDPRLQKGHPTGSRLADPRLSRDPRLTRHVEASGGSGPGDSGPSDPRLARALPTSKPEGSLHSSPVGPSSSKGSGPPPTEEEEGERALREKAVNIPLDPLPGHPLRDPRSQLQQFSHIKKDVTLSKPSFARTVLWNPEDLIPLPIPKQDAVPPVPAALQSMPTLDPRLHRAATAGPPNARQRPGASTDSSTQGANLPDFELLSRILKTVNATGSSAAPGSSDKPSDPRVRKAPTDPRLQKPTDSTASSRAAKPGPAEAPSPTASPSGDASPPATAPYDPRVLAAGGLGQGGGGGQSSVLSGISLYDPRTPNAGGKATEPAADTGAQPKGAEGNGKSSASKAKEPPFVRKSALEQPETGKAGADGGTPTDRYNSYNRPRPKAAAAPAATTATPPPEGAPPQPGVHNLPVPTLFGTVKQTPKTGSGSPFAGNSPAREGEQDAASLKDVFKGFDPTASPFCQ
UniProt P63104: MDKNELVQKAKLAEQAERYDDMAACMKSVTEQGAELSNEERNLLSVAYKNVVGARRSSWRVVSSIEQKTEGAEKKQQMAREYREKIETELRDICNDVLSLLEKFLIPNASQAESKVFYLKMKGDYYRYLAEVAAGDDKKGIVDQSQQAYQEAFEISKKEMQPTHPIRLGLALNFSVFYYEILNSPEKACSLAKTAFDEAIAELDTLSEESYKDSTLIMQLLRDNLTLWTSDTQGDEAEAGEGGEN
UniProt Q8N5A5: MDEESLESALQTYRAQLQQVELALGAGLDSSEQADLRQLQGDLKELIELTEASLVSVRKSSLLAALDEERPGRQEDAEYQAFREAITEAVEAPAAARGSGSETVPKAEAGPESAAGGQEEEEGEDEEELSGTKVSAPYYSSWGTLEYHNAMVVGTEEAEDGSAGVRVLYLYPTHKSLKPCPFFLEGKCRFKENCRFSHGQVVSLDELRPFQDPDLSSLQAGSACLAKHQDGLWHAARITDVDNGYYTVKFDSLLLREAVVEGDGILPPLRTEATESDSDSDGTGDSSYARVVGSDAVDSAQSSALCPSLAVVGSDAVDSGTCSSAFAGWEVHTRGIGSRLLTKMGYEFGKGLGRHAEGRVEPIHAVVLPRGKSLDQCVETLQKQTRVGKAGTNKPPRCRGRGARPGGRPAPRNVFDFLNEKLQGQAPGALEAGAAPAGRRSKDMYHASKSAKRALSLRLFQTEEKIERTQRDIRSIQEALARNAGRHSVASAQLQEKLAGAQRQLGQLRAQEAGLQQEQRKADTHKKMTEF
UniProt Q8IZ13: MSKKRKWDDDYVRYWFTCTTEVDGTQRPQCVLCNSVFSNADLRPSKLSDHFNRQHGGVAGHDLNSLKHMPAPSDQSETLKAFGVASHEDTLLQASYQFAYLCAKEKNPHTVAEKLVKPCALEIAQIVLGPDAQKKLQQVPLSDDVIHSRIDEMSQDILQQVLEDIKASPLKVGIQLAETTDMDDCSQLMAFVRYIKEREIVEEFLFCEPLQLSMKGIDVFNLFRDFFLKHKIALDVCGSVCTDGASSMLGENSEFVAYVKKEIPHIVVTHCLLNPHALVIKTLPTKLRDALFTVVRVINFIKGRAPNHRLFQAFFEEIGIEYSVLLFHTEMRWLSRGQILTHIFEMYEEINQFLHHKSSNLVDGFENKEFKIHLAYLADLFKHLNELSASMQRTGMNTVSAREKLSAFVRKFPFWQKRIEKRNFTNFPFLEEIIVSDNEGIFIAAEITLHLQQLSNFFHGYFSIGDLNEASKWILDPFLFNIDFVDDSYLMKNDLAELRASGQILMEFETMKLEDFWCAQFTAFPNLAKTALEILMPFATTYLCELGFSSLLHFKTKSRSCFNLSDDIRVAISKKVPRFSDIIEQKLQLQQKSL
UniProt Q9BYJ9: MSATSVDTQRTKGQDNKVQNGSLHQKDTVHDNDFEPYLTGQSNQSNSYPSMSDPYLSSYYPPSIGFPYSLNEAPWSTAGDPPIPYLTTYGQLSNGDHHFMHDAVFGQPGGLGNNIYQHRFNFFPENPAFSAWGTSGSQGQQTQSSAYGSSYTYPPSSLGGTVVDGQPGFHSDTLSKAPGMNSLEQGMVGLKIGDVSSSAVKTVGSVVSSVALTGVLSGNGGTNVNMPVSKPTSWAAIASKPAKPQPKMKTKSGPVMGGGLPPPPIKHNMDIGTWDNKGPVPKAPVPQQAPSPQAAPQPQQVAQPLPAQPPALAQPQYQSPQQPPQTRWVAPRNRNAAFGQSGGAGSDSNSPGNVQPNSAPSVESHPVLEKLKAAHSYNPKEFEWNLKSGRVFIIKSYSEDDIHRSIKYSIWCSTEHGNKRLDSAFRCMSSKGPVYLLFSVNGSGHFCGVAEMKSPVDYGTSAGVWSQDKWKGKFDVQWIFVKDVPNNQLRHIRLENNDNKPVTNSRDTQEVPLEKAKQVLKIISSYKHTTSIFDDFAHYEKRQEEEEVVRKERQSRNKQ
UniProt Q9UGR2: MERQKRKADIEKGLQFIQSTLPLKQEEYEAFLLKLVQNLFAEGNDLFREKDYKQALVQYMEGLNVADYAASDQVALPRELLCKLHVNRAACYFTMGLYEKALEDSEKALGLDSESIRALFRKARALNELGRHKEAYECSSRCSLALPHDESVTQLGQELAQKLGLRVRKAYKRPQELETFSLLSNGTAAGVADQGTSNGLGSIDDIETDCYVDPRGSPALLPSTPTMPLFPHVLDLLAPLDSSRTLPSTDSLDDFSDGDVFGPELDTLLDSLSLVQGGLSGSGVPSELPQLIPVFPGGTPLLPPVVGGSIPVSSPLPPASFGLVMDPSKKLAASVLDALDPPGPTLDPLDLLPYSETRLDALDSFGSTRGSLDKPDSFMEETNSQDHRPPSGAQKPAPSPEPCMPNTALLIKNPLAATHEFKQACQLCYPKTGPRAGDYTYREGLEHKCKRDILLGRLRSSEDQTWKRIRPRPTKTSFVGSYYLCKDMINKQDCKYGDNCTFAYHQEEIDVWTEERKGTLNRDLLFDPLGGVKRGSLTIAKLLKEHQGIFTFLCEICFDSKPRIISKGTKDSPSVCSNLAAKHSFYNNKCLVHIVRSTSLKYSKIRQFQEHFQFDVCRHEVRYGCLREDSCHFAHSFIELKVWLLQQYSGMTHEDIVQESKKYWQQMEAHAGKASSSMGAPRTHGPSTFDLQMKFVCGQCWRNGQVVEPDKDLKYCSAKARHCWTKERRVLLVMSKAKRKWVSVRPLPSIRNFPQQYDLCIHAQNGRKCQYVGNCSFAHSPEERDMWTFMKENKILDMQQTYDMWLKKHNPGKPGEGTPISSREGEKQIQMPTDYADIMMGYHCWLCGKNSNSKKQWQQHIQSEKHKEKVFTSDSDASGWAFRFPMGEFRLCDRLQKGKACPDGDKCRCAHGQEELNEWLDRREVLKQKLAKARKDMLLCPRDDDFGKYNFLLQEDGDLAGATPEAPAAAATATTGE
UniProt O60315: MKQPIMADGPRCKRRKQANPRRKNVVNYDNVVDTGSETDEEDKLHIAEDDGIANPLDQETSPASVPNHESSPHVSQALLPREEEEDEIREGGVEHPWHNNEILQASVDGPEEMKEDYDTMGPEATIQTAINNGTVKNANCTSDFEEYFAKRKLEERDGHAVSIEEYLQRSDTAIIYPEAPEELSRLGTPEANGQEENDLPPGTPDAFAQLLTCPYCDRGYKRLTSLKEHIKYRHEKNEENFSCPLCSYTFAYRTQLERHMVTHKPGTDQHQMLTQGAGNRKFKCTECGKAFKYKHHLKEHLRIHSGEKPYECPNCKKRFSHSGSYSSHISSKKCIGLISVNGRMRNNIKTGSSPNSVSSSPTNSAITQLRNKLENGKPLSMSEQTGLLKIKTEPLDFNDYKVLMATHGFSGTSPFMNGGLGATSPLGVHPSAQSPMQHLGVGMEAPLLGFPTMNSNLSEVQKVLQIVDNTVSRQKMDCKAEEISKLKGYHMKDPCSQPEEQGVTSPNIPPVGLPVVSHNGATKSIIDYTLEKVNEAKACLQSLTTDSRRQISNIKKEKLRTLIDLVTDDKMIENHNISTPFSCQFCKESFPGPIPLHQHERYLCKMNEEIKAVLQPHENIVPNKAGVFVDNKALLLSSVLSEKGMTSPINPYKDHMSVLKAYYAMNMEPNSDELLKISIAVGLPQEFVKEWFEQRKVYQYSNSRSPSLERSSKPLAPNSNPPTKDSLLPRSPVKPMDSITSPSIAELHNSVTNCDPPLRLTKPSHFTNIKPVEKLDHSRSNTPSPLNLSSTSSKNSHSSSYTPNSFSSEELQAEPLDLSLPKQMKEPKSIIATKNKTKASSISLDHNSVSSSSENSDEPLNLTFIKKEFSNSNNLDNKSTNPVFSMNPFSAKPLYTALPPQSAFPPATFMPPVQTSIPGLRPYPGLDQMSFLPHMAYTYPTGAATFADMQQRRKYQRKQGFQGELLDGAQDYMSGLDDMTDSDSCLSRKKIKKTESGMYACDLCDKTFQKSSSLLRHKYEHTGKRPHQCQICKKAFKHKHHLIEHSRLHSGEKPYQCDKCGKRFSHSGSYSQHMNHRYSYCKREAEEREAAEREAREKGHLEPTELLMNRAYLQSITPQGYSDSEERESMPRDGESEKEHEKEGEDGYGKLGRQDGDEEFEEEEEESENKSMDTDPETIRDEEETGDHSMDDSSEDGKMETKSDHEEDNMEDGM
UniProt Q8WU90: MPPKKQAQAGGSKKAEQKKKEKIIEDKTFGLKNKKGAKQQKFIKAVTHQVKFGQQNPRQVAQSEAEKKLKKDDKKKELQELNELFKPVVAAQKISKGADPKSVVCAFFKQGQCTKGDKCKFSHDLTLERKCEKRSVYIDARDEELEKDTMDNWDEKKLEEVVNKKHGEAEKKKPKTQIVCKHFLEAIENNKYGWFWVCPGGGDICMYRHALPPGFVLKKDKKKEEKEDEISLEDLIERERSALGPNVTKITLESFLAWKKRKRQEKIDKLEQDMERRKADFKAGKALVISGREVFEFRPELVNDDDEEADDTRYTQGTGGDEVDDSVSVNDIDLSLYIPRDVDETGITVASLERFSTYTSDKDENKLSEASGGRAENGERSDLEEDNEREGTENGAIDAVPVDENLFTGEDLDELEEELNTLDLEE

Columns and labels:
Assay in all cases: log2 fold change, soluble protein after heating vs DMSO (PISA); higher = thermal stabilisation; K562 lysate, 10 uM; active = over 0.2 and 3.5 SD of the protein, either way, in both replicates (recomputed)
nilotinib = compound: Cc1cn(-c2cc(NC(=O)c3ccc(C)c(Nc4nccc(-c5cccnc5)n4)c3)cc(C(F)(F)F)c2)cn1 [nilotinib]
In short: (§1)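 Pellets of K562 cells were dounce-homogenised in PBS pH 7.4 with 1 mM MgCl2, and the crude extract was held at 1 mg/mL protein for a 30 min treatment with 10 μM compound. Aliquots were heated for 3 min over 48°C-58°C and pooled before NP-40 was added to 0.5% at 4°C. The supernatant from 21,000xg for 90 min was quantified by TMTpro 16plex LC-MS/MS with channel sums equalised. Values are reported from duplicates as log-two fold change in thermal stability relative to solvent controls.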

[1] = compound: Cc1nc(Nc2n[nH]c3c2CN(C(=O)N[C@H](CN(C)C)c2ccccc2)C3(C)C)c2sccc2n1
In short: as §1

dasatinib = compound: Cc1nc(Nc2ncc(C(=O)Nc3c(C)cccc3Cl)s2)cc(N2CCN(CCO)CC2)n1 [dasatinib]
In short: as §1

[2] = compound: Cc1ncc(-c2ccnc(Nc3ccc(S(C)(=O)=O)cc3)n2)n1C(C)C
In short: as §1

[3] = compound: Cn1cc(-c2ccc3c(c2)CCN3C(=O)Cc2cccc(C(F)(F)F)c2)c2c(N)ncnc21
In short: as §1

quisinostat = compound: Cn1cc(CNCC2CCN(c3ncc(C(=O)NO)cn3)CC2)c2ccccc21 [quisinostat]
In short: as §1

tipifarnib = compound: Cn1cncc1[C@@](N)(c1ccc(Cl)cc1)c1ccc2c(c1)c(-c1cccc(Cl)c1)cc(=O)n2C [tipifarnib]
In short: as §1

[4] = compound: NC(=O)Nc1cc(-c2cccc(F)c2)sc1C(=O)N[C@H]1CCCNC1
In short: as §1

[5] = compound: NC(=O)c1cnc(N[C@@H]2CCCC[C@@H]2N)nc1Nc1cccc(-n2nccn2)c1
In short: as §1

[6] = compound: NC1(c2ccc(-c3nc4ccn5c(=O)[nH]nc5c4cc3-c3ccccc3)cc2)CCC1
In short: as §1

[7] = compound: NCC(=O)Nc1ccc(-n2nc(C(F)(F)F)cc2-c2ccc3c(ccc4ccccc43)c2)cc1
In short: as §1

vorinostat = compound: O=C(CCCCCCC(=O)Nc1ccccc1)NO [vorinostat]
In short: as §1

silmitasertib = compound: O=C(O)c1ccc2c(c1)nc(Nc1cccc(Cl)c1)c1ccncc12 [silmitasertib]
In short: as §1

[8] = compound: O=C1NC(=O)C(c2cnc3ccccn23)=C1c1cn2c3c(cc(F)cc13)CN(C(=O)N1CCCCC1)CC2
In short: as §1

entospletinib = compound: c1cn2cc(-c3ccc4cn[nH]c4c3)nc(Nc3ccc(N4CCOCC4)cc3)c2n1 [entospletinib]
In short: as §1

Measured: log2 fold change

YIPF6 (UniProt Q96EC8)
inactive: nilotinib 0.213 | [1] 0.053 | dasatinib -0.009 | [2] -0.115 | [3] 0.039 | quisinostat 0.151 | tipifarnib -0.065 | [4] -0.014 | [5] -0.055 | [6] -0.051 | [7] -0.073 | vorinostat -0.015 | silmitasertib -0.095 | [8] -0.016 | entospletinib -0.11

YWHAG (UniProt P61981)
inactive: nilotinib 0.046 | [1] -0.008 | dasatinib 0.051 | [2] 0.083 | [3] -0.009 | quisinostat 0.109 | tipifarnib 0.013 | [4] -0.036 | [5] -0.009 | [6] -0.001 | [7] -0.057 | vorinostat 0.144 | silmitasertib -0.014 | [8] 0.028 | entospletinib -0.001

YJU2 (UniProt Q9BW85)
inactive: nilotinib 0.023 | [1] -0.013 | dasatinib 0.024 | [2] -0.081 | [3] 0.027 | quisinostat 0.005 | tipifarnib 0.007 | [4] -0.034 | [5] -0.018 | [6] 0.008 | [7] 0.003 | vorinostat 0.091 | silmitasertib -0.049 | [8] -0.019 | entospletinib -0.002

YIPF3 (UniProt Q9GZM5)
inactive: nilotinib -0.044 | [1] -0.005 | dasatinib 0.052 | [2] 0.007 | [3] -0.04 | quisinostat 0.036 | tipifarnib -0.003 | [4] 0.025 | [5] -0.045 | [6] 0.025 | [7] -0.05 | vorinostat 0.147 | silmitasertib 0.011 | [8] -0.02 | entospletinib 0.003

YPEL5 (UniProt P62699)
inactive: nilotinib -0.082 | [1] 0.028 | dasatinib -0.081 | [2] -0.019 | [3] 0.003 | quisinostat -0.018 | tipifarnib 0.049 | [4] 0.034 | [5] -0.004 | [6] 0.099 | [7] -0.04 | vorinostat -0.147 | silmitasertib -0.055 | [8] -0.007 | entospletinib -0.039

ZC3H4 (UniProt Q9UPT8)
inactive: nilotinib 0.035 | [1] -0.007 | dasatinib 0.049 | [2] 0.009 | [3] -0.007 | quisinostat -0.057 | tipifarnib 0.003 | [4] 0.014 | [5] -0.005 | [6] -0.037 | [7] 0.037 | vorinostat 0.078 | silmitasertib -0.079 | [8] 0.043 | entospletinib -0.02

Two records drawn at random from the list so far, as already listed:
ZC3H4 (UniProt Q9UPT8)
inactive: nilotinib 0.035 | [1] -0.007 | dasatinib 0.049 | [2] 0.009 | [3] -0.007 | quisinostat -0.057 | tipifarnib 0.003 | [4] 0.014 | [5] -0.005 | [6] -0.037 | [7] 0.037 | vorinostat 0.078 | silmitasertib -0.079 | [8] 0.043 | entospletinib -0.02

YJU2 (UniProt Q9BW85)
inactive: nilotinib 0.023 | [1] -0.013 | dasatinib 0.024 | [2] -0.081 | [3] 0.027 | quisinostat 0.005 | tipifarnib 0.007 | [4] -0.034 | [5] -0.018 | [6] 0.008 | [7] 0.003 | vorinostat 0.091 | silmitasertib -0.049 | [8] -0.019 | entospletinib -0.002

Remaining list, next part.

ZFYVE16 (UniProt Q7Z3T8)
inactive: nilotinib 0.005 | [1] -0.01 | dasatinib 0.003 | [2] 0.022 | [3] 0.014 | quisinostat -0.011 | tipifarnib -0.011 | [4] 0.016 | [5] 0.019 | [6] -0.019 | [7] 0.021 | vorinostat -0.04 | silmitasertib 0.018 | [8] -0.004 | entospletinib -0.025

YY1 (UniProt P25490)
inactive: nilotinib -0.032 | [1] 0.022 | dasatinib -0.055 | [2] -0.005 | [3] -0.018 | quisinostat 0.109 | tipifarnib -0.01 | [4] -0.017 | [5] -0.021 | [6] 0.042 | [7] -0.065 | vorinostat 0.047 | silmitasertib -0.001 | [8] -0.045 | entospletinib -0.022

YWHAZ (UniProt P63104)
inactive: nilotinib 0.01 | [1] -0.004 | dasatinib 0.053 | [2] 0.029 | [3] -0.012 | quisinostat 0.031 | tipifarnib 0.003 | [4] -0.038 | [5] -0.03 | [6] 0.02 | [7] -0.005 | vorinostat 0.116 | silmitasertib -0.012 | [8] -0.005 | entospletinib 0.001

XXYLT1 (UniProt Q8NBI6)
inactive: nilotinib 0.018 | [1] 0.002 | dasatinib -0.044 | [2] 0.007 | [3] 0.067 | quisinostat -0.019 | tipifarnib -0.084 | [4] 0.034 | [5] 0.004 | [6] -0.026 | [7] 0.034 | vorinostat 0.166 | silmitasertib -0.012 | [8] 0.029 | entospletinib -0.007

ZDHHC3 isoform 2 (UniProt Q9NYG2)
inactive: nilotinib 0.113 | [1] -0.088 | dasatinib -0.143 | [2] 0.067 | [3] -0.009 | quisinostat -0.186 | tipifarnib 0.025 | [4] 0.063 | [5] -0.017 | [6] -0.001 | [7] -0.039 | vorinostat 0.112 | silmitasertib 0.094 | [8] -0.072 | entospletinib -0.007

ZGPAT (UniProt Q8N5A5)
inactive: nilotinib -0.04 | [1] 0.028 | dasatinib 0.005 | [2] -0.019 | [3] 0.035 | quisinostat -0.035 | tipifarnib 0.023 | [4] -0.034 | [5] 0.125 | [6] 0.016 | [7] -0.027 | vorinostat -0.191 | silmitasertib 0.032 | [8] 0.08 | entospletinib -0.078

ZBED8 (UniProt Q8IZ13)
inactive: nilotinib -0.018 | [1] -0.066 | dasatinib -0.041 | [2] -0.05 | [3] 0.071 | quisinostat 0.006 | tipifarnib 0.035 | [4] 0.056 | [5] 0.02 | [6] -0.008 | [7] -0.03 | vorinostat -0.101 | silmitasertib -0.032 | [8] 0.022 | entospletinib 0

ZCCHC3 (UniProt Q9NUD5)
inactive: nilotinib -0.031 | [1] 0.039 | dasatinib -0.025 | [2] -0.016 | [3] -0.021 | quisinostat -0.008 | tipifarnib -0.013 | [4] 0.014 | [5] -0.018 | [6] 0.082 | [7] -0.017 | vorinostat -0.111 | silmitasertib 0.123 | [8] -0.055 | entospletinib -0.024

YTHDC2 (UniProt Q9H6S0)
inactive: nilotinib 0.006 | [1] -0.001 | dasatinib -0.043 | [2] 0.03 | [3] 0.03 | quisinostat -0.046 | tipifarnib 0.022 | [4] 0.06 | [5] -0.007 | [6] -0.054 | [7] 0.061 | silmitasertib -0.007 | [8] 0.018 | entospletinib 0.013
active: vorinostat -0.231

YTHDF1 (UniProt Q9BYJ9)
inactive: nilotinib -0.218 | [1] 0.083 | dasatinib -0.073 | [2] 0 | [3] -0.068 | quisinostat -0.225 | tipifarnib -0.136 | [4] 0.246 | [5] 0.008 | [6] 0.001 | [7] 0.104 | vorinostat -0.164 | silmitasertib 0.044 | [8] 0.086 | entospletinib -0.057

ZC3H7B (UniProt Q9UGR2)
inactive: nilotinib 0.069 | [1] -0.057 | dasatinib -0.057 | [2] -0.038 | [3] 0.055 | quisinostat -0.028 | tipifarnib 0.005 | [4] 0.057 | [5] 0.04 | [6] 0.01 | [7] -0.078 | vorinostat -0.121 | silmitasertib -0.01 | [8] 0.01 | entospletinib 0.118

ZEB2 (UniProt O60315)
inactive: nilotinib 0.196 | [1] 0.168 | dasatinib -0.015 | [2] -0.14 | [3] 0.013 | quisinostat -0.013 | tipifarnib -0.18 | [4] 0.006 | [5] 0.058 | [6] 0.03 | [7] 0.011 | vorinostat -0.122 | silmitasertib -0.038 | [8] -0.033 | entospletinib -0.076

ZC3H15 (UniProt Q8WU90)
inactive: nilotinib 0.006 | [1] -0.019 | dasatinib 0.031 | [2] 0.025 | [3] -0.013 | quisinostat -0.011 | tipifarnib -0.012 | [4] -0.021 | [5] -0.004 | [6] 0.025 | [7] -0.008 | vorinostat 0.08 | silmitasertib -0.049 | [8] -0.024 | entospletinib 0.001
